Laboratory results reported in the supplement of paper PMC10849652.
Some of the results follow. Residues, ends and D or L forms follow the SMILES beside them. *: point of attachment. Cbz = O=C(OCc1ccccc1)*

The chains behind the UniProt entries cited, without tags or fusion partners. Where a name states a change or a piece, a line headed by the entry shows the natural chain unless it says otherwise.
UniProt P50552: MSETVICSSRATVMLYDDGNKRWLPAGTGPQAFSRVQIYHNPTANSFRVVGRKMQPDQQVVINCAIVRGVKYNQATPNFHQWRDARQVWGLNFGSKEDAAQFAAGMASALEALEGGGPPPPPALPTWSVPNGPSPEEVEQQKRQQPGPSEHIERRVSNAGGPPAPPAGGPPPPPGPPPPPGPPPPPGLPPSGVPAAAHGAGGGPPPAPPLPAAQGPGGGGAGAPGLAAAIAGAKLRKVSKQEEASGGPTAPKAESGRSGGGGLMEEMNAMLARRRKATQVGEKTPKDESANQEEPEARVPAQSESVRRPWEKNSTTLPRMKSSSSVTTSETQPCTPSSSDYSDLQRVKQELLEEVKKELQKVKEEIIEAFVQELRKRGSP
UniProt Q9BV40: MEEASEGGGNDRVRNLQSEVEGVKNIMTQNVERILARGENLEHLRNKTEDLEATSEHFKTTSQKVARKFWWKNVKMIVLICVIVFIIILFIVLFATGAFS
UniProt Q8TED0: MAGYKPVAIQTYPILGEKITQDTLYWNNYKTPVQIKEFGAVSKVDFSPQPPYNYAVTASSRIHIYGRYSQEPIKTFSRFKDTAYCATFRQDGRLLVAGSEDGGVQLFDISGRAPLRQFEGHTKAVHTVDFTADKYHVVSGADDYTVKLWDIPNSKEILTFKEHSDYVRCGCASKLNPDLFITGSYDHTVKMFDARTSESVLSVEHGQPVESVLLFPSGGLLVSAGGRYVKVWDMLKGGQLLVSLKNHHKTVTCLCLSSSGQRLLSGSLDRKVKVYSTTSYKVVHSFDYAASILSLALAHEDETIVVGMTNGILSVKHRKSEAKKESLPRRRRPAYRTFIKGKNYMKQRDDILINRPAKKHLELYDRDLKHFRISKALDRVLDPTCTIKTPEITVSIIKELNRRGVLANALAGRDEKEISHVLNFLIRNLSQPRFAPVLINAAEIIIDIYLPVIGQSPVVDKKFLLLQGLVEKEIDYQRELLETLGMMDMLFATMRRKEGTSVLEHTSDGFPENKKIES
UniProt Q9Y3C8: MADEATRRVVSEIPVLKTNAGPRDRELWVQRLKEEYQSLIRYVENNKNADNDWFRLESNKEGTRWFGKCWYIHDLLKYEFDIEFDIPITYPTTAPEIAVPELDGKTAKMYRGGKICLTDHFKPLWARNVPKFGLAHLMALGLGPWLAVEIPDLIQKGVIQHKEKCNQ
UniProt P47985: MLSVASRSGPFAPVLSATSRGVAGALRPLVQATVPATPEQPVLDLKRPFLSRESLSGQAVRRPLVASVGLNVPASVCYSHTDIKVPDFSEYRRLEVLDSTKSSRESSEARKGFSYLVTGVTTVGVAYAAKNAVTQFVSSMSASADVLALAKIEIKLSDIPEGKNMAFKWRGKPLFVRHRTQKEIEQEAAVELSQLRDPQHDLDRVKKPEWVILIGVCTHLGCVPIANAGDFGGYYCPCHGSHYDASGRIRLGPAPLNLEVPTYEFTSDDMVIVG
UniProt O14949: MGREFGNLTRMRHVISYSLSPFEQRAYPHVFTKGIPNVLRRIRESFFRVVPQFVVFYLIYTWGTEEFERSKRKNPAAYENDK
UniProt O95071: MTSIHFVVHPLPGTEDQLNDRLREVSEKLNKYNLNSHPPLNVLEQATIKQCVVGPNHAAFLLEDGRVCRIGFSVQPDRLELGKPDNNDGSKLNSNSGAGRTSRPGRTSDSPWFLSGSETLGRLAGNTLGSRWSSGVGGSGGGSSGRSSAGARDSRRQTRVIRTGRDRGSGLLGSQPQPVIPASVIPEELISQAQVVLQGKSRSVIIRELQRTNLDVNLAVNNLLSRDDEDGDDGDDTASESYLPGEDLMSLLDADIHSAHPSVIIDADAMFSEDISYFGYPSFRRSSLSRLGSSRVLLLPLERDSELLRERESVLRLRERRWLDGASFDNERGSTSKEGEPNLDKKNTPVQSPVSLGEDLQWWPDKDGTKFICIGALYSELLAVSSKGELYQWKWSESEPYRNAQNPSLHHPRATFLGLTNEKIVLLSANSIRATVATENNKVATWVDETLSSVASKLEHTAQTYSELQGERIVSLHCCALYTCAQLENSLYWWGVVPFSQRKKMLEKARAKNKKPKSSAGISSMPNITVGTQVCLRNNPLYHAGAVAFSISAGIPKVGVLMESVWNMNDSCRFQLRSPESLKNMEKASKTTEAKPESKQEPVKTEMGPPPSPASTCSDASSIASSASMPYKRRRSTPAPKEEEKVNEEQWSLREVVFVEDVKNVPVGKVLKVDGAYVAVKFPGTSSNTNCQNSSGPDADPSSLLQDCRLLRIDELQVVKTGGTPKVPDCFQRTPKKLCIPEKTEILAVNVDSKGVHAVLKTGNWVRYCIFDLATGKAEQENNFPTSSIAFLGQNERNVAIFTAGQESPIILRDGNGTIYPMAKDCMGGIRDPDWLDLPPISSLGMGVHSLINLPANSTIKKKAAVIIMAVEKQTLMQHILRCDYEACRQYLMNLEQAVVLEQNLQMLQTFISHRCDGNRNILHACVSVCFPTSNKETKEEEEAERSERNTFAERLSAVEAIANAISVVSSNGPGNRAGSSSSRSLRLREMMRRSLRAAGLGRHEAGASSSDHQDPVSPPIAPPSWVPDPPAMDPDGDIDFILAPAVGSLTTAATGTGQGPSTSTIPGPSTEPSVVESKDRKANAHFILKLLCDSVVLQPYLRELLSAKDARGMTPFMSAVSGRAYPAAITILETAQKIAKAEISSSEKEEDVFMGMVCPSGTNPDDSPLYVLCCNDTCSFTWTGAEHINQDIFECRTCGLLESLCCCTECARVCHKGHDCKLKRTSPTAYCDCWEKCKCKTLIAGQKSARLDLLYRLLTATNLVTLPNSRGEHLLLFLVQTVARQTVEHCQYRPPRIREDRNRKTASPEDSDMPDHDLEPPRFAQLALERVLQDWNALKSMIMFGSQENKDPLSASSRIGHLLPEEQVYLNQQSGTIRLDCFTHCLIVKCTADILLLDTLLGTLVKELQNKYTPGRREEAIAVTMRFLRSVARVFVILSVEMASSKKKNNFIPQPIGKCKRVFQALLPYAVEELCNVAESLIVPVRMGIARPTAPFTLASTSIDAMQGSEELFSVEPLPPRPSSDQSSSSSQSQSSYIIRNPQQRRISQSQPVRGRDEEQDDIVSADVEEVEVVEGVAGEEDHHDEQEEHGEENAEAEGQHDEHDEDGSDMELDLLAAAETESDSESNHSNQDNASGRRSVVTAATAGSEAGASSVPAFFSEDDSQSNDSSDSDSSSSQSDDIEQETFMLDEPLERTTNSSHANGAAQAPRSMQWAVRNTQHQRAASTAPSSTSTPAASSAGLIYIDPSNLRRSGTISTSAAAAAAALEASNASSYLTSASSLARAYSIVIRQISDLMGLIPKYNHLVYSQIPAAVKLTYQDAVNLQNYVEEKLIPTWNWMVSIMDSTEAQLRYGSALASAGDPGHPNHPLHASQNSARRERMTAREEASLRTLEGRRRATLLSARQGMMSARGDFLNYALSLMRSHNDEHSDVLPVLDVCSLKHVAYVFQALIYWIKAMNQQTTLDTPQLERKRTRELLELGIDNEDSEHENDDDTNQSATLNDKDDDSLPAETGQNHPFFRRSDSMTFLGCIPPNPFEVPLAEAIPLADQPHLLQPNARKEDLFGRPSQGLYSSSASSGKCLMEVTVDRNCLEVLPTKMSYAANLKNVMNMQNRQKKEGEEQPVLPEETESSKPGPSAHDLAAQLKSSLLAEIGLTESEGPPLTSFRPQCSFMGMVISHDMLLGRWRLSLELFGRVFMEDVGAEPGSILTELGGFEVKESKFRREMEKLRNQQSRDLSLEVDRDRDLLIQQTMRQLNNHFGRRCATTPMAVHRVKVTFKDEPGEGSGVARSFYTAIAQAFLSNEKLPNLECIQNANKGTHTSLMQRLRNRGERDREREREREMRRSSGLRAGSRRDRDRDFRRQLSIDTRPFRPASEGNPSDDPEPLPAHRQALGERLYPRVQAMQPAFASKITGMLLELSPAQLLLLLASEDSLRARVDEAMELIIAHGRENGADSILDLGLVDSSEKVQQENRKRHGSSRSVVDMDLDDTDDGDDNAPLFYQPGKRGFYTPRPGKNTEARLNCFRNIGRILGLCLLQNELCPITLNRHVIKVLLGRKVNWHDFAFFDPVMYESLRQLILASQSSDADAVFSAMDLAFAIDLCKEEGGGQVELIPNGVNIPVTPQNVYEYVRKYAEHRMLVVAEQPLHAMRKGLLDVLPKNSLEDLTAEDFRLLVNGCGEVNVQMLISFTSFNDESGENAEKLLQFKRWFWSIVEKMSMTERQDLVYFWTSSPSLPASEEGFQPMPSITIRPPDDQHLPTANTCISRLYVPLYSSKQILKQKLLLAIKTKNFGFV
UniProt P31930: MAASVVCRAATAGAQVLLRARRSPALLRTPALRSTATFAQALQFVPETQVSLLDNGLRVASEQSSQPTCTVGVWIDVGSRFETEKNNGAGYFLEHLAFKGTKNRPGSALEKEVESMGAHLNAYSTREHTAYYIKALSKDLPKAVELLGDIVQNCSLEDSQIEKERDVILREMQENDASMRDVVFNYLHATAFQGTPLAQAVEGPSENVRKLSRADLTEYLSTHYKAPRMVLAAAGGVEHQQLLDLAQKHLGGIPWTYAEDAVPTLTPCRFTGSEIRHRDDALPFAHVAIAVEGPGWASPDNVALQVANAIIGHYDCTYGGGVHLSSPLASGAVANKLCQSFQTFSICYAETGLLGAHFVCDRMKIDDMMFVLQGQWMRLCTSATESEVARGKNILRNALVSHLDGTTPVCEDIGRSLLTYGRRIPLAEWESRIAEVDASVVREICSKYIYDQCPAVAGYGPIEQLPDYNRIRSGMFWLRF
UniProt O60763: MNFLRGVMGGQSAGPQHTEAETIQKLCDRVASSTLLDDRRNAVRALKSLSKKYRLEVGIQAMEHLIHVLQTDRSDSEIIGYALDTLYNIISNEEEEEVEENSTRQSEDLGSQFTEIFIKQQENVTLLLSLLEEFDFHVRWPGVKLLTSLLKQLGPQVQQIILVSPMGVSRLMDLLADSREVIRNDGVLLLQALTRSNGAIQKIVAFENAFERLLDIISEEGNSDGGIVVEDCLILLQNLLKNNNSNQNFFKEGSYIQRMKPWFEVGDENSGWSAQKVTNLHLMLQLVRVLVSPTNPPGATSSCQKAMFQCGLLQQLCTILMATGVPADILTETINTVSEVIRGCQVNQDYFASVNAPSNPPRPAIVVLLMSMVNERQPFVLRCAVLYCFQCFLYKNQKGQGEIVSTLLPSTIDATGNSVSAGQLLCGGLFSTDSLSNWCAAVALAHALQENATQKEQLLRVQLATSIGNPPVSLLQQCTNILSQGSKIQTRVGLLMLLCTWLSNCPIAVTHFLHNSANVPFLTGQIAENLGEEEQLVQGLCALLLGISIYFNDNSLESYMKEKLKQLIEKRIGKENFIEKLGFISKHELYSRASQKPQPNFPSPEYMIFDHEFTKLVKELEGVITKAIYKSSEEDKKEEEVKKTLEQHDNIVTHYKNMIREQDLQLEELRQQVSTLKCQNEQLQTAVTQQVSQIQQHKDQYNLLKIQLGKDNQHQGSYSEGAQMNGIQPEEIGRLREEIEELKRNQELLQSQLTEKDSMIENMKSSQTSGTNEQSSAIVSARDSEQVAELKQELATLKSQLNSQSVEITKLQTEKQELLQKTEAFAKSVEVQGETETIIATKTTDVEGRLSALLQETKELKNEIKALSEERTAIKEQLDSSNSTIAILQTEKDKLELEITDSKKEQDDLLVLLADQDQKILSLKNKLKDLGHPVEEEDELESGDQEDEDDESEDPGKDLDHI
UniProt Q96S82: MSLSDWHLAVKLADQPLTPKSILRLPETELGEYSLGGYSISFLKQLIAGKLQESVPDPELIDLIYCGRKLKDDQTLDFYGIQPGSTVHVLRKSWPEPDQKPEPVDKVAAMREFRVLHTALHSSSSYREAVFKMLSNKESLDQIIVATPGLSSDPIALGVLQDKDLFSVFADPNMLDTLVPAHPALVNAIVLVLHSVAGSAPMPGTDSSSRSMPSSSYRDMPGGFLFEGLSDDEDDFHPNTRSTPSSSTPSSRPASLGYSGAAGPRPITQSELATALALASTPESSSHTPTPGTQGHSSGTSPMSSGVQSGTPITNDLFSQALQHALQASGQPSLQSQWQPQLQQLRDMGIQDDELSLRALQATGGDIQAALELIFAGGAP
UniProt Q9NVA1: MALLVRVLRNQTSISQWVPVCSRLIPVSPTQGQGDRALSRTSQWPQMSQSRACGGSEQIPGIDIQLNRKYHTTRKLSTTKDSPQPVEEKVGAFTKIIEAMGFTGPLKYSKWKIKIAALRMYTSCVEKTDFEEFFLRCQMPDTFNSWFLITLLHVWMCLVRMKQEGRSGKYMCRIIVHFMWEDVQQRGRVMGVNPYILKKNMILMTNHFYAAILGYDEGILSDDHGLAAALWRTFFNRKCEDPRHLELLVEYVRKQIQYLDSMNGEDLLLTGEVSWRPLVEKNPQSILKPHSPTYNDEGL

Tests used:
Test in all cases: log2 fold change, soluble protein after heating vs DMSO (PISA); higher = thermal stabilisation; K562 cells, 10 uM, 30 min; active = over 0.2 and 3.5 SD of the protein, either way, in both replicates (recomputed)
erlotinib = compound: C#Cc1cccc(Nc2ncnc3cc(OCCOC)c(OCCOC)cc23)c1 [erlotinib]
In short: (§1)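 K562 cells at 2×10^6 cells/mL were treated for 30 min with 10 μM compound, and aliquots were heated for 3 min over 48°C-58°C before pooling. Extraction used PBS with 0.5% NP-40 at 4°C, and soluble protein was the supernatant after 21,000xg for 90 min, measured by TMTpro 16plex LC-MS/MS with channel sums equalised. Thermal stability values, relative to control samples and from duplicates, are log2 fold changes.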

[1] = compound: C/C(=N\NC(=O)C1=CC(=CC=C1)S(=O)(=O)N2CCOCC2)/C3=C(C=CC(=C3)Cl)O
In short: as §1

[2] = compound: C1=CC(=C(C=C1Cl)C2=NC3=NC=CN=C3C(=N2)NC4=CC=NC=C4)F
In short: as §1

[3] = compound: C1=CC(=CC=C1C2=NC3=C(N2)C=C(C=C3)C(=O)N)OC4=CC=C(C=C4)Cl
In short: as §1

[4] = compound: C1=CC2=C(C=CC(=C2)/C=C\3/C(=O)NC(=NCC4=CC=CS4)S3)N=C1
In short: as §1

[5] = compound: C1=CC2=NC=CN=C2C=C1/C=C/3\C(=O)NC(=O)S3
In short: as §1

[6] = compound: C1=CC=C(C=C1)C2=NC(=C(N2)C3=CC=NC=C3)C4=CC(=C(C=C4)Cl)O
In short: as §1

[7] = compound: C1=CC=C2C(=C1)C3=NNC4=CC=CC(=C43)C2=O
In short: as §1

[8] = compound: C1CCN(C1)C(=O)NC2=CC=CC(=C2)NC3=NC=C(C(=N3)NCCC4=CN=CN4)Br
In short: as §1

[9] = compound: C1CN(CCC1(CC2=CC=C(C=C2)Cl)N)C3=NC=NC4=C3C=CN4
In short: as §1

IRAK-1-4 Inhibitor I = compound: C1COCCN1CCN2C3=CC=CC=C3N=C2NC(=O)C4=CC(=CC=C4)[N+](=O)[O-] [IRAK-1-4 Inhibitor I]
In short: as §1

ibrutinib = compound: C=CC(=O)N1CCC[C@@H](n2nc(-c3ccc(Oc4ccccc4)cc3)c3c(N)ncnc32)C1 [ibrutinib]
In short: as §1

[10] = compound: CC(=O)c1cnc2ccc(-c3cc(Cl)c(O)c(Cl)c3)nc2c1N[C@H]1CC[C@H](CN(C)C)CC1
In short: as §1

ralimetinib = compound: CC(C)(C)Cn1c(N)nc2ccc(-c3[nH]c(C(C)(C)C)nc3-c3ccc(F)cc3)nc21 [ralimetinib]
In short: as §1

[11] = compound: CC(C)(O)CC(=O)NCCn1ccc2ncnc(Nc3ccc(Oc4cccc(C(F)(F)F)c4)c(Cl)c3)c21
In short: as §1

[12] = compound: CC(C)C1=C2N=C(C=C(N2N=C1)NCC3=CC=CC=C3)NCCCCCCN
In short: as §1

[13] = compound: CC(C)C[C@@H](C=O)NC(=O)[C@H](CC(C)C)NC(=O)[C@H](CC(C)C)NC(=O)OCc1ccccc1
In short: as §1

pinometostat = compound: CC(C)N(C[C@H]1O[C@@H](n2cnc3c(N)ncnc32)[C@H](O)[C@@H]1O)[C@H]1C[C@@H](CCc2nc3cc(C(C)(C)C)ccc3[nH]2)C1 [pinometostat]
In short: as §1

[14] = compound: CC1=C(C(CC(=O)N1)C2=CC=C(C=C2)C(F)(F)F)C(=O)NC3=C(C=C4C(=C3)C=NN4)F
In short: as §1

[15] = compound: CC1=C(C2=C(C=C1)C(=O)C3=CC=CC=C3N2CCCN)C
In short: as §1

Measured: log2 fold change

VASP (UniProt P50552)
inactive: erlotinib 0.164 | [1] 0.078 | [2] -0.051 | [3] -0.046 | [4] 0.139 | [5] 0.004 | [6] -0.021 | [7] 0.027 | [8] -0.088 | [9] -0.174 | IRAK-1-4 Inhibitor I -0.245 | ibrutinib -0.076 | [10] -0.045 | ralimetinib 0.021 | [11] -0.137 | [12] -0.076 | [13] 0.096 | pinometostat 0.132 | [14] -0.01 | [15] 0.123

URI1 isoform 4 (UniProt O94763)
inactive: erlotinib -0.118 | [1] -0.097 | [2] 0.164 | [3] 0.01 | [4] 0.037 | [5] -0.051 | [6] -0.052 | [7] -0.153 | [8] -0.095 | [9] -0.003 | IRAK-1-4 Inhibitor I 0.154 | ibrutinib 0.014 | [10] 0.102 | ralimetinib -0.013 | [11] -0.247 | [12] 0.2 | [13] 0.183 | pinometostat -0.037 | [14] -0.143 | [15] 0.017

VAMP8 (UniProt Q9BV40)
inactive: erlotinib -0.004 | [1] -0.121 | [2] -0.004 | [3] 0.002 | [4] -0.091 | [5] 0.07 | [6] -0.016 | [7] -0.03 | [8] 0.02 | [9] 0.046 | IRAK-1-4 Inhibitor I 0.052 | ibrutinib 0.027 | [10] 0.02 | ralimetinib -0.074 | [11] -0.023 | [12] -0.011 | [13] 0.012 | pinometostat -0.06 | [14] 0.008 | [15] -0.015

UTP15 (UniProt Q8TED0)
inactive: erlotinib -0.195 | [1] -0.131 | [2] -0.519 | [3] 0.077 | [4] -0.057 | [5] -0.029 | [6] -0.014 | [7] 0.082 | [8] 0.024 | [9] -0.042 | IRAK-1-4 Inhibitor I -0.145 | ibrutinib 0.023 | [10] 0.115 | ralimetinib 0.115 | [11] 0.058 | [12] 0.197 | [13] 0.103 | pinometostat 0.326 | [14] 0.041 | [15] -0.073

UFC1 (UniProt Q9Y3C8)
inactive: erlotinib 0.033 | [1] 0.002 | [2] 0.052 | [3] -0.053 | [4] -0.034 | [5] 0.012 | [6] 0.025 | [7] -0.042 | [8] 0.009 | [9] 0.038 | IRAK-1-4 Inhibitor I 0.005 | ibrutinib 0.003 | [10] 0.039 | ralimetinib -0.074 | [11] -0.005 | [12] 0.068 | [13] -0.057 | pinometostat -0.064 | [14] 0.069 | [15] -0.034

2 consecutive entries out of the list so far:
UTP15 (UniProt Q8TED0)
inactive: erlotinib -0.195 | [1] -0.131 | [2] -0.519 | [3] 0.077 | [4] -0.057 | [5] -0.029 | [6] -0.014 | [7] 0.082 | [8] 0.024 | [9] -0.042 | IRAK-1-4 Inhibitor I -0.145 | ibrutinib 0.023 | [10] 0.115 | ralimetinib 0.115 | [11] 0.058 | [12] 0.197 | [13] 0.103 | pinometostat 0.326 | [14] 0.041 | [15] -0.073

UFC1 (UniProt Q9Y3C8)
inactive: erlotinib 0.033 | [1] 0.002 | [2] 0.052 | [3] -0.053 | [4] -0.034 | [5] 0.012 | [6] 0.025 | [7] -0.042 | [8] 0.009 | [9] 0.038 | IRAK-1-4 Inhibitor I 0.005 | ibrutinib 0.003 | [10] 0.039 | ralimetinib -0.074 | [11] -0.005 | [12] 0.068 | [13] -0.057 | pinometostat -0.064 | [14] 0.069 | [15] -0.034

Next records.

UQCRFS1 (UniProt P47985)
inactive: erlotinib -0.005 | [1] -0.029 | [2] 0.11 | [3] -0.005 | [4] -0.069 | [5] 0.023 | [6] -0.033 | [7] 0.004 | [8] 0.014 | [9] 0.046 | IRAK-1-4 Inhibitor I 0.032 | ibrutinib -0.026 | [10] 0.056 | ralimetinib -0.016 | [11] -0.047 | [12] 0.045 | [13] -0.032 | pinometostat -0.083 | [14] -0.003 | [15] 0.004

UQCRQ (UniProt O14949)
inactive: erlotinib -0.002 | [1] -0.037 | [2] 0.07 | [3] 0.026 | [4] 0.045 | [5] 0.014 | [6] 0.003 | [7] 0.025 | [8] 0.027 | [9] 0.056 | IRAK-1-4 Inhibitor I 0.064 | ibrutinib 0.02 | [10] 0.039 | ralimetinib -0.031 | [11] 0.044 | [12] 0.053 | [13] -0.052 | pinometostat 0.001 | [14] -0.023 | [15] 0.001

UBE3D (UniProt Q7Z6J8)
inactive: erlotinib -0.014 | [1] -0.018 | [2] 0.033 | [3] 0.022 | [4] 0.003 | [5] -0.076 | [6] 0.013 | [7] -0.006 | [8] -0.114 | [9] 0.079 | IRAK-1-4 Inhibitor I 0.029 | ibrutinib 0.047 | [10] 0.026 | ralimetinib 0.015 | [11] 0.088 | [12] 0.011 | [13] -0.061 | pinometostat -0.012 | [15] 0.051

UBR5 (UniProt O95071)
inactive: erlotinib -0.076 | [1] 0.007 | [2] -0.056 | [3] -0.025 | [4] -0.023 | [5] 0.051 | [6] -0.041 | [7] -0.136 | [8] 0.024 | [9] -0.101 | IRAK-1-4 Inhibitor I -0.057 | ibrutinib -0.034 | [10] -0.002 | ralimetinib 0.056 | [11] 0.022 | [12] -0.042 | [13] 0.041 | pinometostat 0.046 | [14] 0.078 | [15] -0.183

UQCRC1 (UniProt P31930)
inactive: erlotinib 0.008 | [1] -0.008 | [2] 0.058 | [3] -0.022 | [4] -0.003 | [5] 0.053 | [6] -0.031 | [7] -0.028 | [8] 0.01 | [9] 0.064 | IRAK-1-4 Inhibitor I 0.082 | ibrutinib -0.038 | [10] 0.021 | ralimetinib -0.045 | [11] -0.072 | [12] 0.033 | [13] -0.017 | pinometostat -0.007 | [14] 0.02 | [15] 0.022

USP34 (UniProt Q70CQ2)
inactive: erlotinib 0.065 | [1] 0.074 | [2] 0.026 | [3] -0.02 | [4] 0.145 | [5] -0.013 | [6] 0.027 | [7] -0.043 | [8] 0.015 | [9] -0.086 | IRAK-1-4 Inhibitor I 0.005 | ibrutinib -0.091 | [10] -0.033 | ralimetinib -0.017 | [11] -0.14 | [12] -0.114 | [13] -0.016 | pinometostat 0.079 | [15] -0.176

USO1 isoform 2 (UniProt O60763)
inactive: erlotinib -0.008 | [1] 0.046 | [2] 0.051 | [3] -0.028 | [4] -0.049 | [5] 0.059 | [6] 0.004 | [7] -0.028 | [8] 0.033 | [9] -0.014 | IRAK-1-4 Inhibitor I 0.05 | ibrutinib -0.025 | [10] 0.066 | ralimetinib 0.004 | [11] -0.061 | [12] -0.108 | [13] -0.01 | pinometostat 0.008 | [15] -0.005

UBL7 (UniProt Q96S82)
inactive: erlotinib 0.015 | [1] -0.007 | [2] 0.019 | [3] -0.006 | [4] 0.103 | [5] 0.06 | [6] -0.015 | [7] 0.043 | [8] -0.075 | [9] -0.084 | IRAK-1-4 Inhibitor I -0.064 | ibrutinib -0.088 | [10] -0.006 | ralimetinib -0.049 | [11] -0.065 | [12] -0.111 | [13] 0.066 | pinometostat -0.07 | [14] -0.029 | [15] 0.196

UVRAG (UniProt Q9P2Y5)
inactive: erlotinib 0.049 | [1] 0.044 | [2] -0.046 | [3] -0.007 | [4] 0.044 | [5] 0.105 | [6] -0.008 | [7] 0.049 | [8] -0.052 | [9] -0.034 | IRAK-1-4 Inhibitor I 0.066 | ibrutinib -0.022 | [10] 0.014 | ralimetinib 0.029 | [11] -0.041 | [12] -0.027 | [13] 0.005 | pinometostat -0.013 | [14] 0.032 | [15] 0.095

UBR7 (UniProt Q8N806)
inactive: erlotinib -0.048 | [1] 0.042 | [2] 0.084 | [3] -0.021 | [4] 0.039 | [5] 0.008 | [6] -0.09 | [7] -0.038 | [8] -0.011 | [9] 0.058 | IRAK-1-4 Inhibitor I 0.049 | ibrutinib -0.02 | [10] -0.042 | ralimetinib -0.048 | [11] 0.055 | [12] 0.09 | [13] -0.004 | pinometostat -0.003 | [14] -0.016 | [15] -0.033

UQCC1 (UniProt Q9NVA1)
inactive: erlotinib -0.016 | [1] 0.017 | [2] -0.018 | [3] 0 | [4] -0.034 | [5] 0.075 | [6] 0.003 | [7] -0.027 | [8] 0.031 | [9] 0.03 | IRAK-1-4 Inhibitor I 0.023 | ibrutinib 0.04 | [10] -0.013 | ralimetinib -0.025 | [11] 0.061 | [12] -0.042 | [13] -0.026 | pinometostat -0.05 | [14] 0.01 | [15] -0.014
